Entries after “also recorded” stand apart in the source; their conditions may differ. At least one structure is not confirmed: it was looked up by name or label, or the drawing left a doubt.
How the values were obtained:
Assay type in all cases: cell-based, human
TT cells = assay: Flow cytometry of cell surface HLA on TT cells; details: 72 hrs
Description: (§1) If adherent cells, they were seeded one day before treatment.

LC-2/ad cells = assay: Flow cytometry of cell surface HLA on LC-2/ad cells; details: 72 hrs
Description: as §1

TPC1 cells [1] = assay: Flow cytometry of cell surface HLA and checkpoint ligands on TPC1 cells; details: TPC1, 72 hrs
Description: as §1

pERK in TPC1 cells = assay: Western blot of pERK in TPC1 cells; details: TPC1, 24 hrs
Description: Cells were seeded in a 60 mm dish or 6 well plates. After the appropriate time point, cells were harvested and lysed and protein was quantified by a Lowry assay (Bio-Rad DC Protein Assay; #5000116). Protein levels were normalized and run on SDS PAGE gels (Bio-Rad). Protein was transferred to a nitrocellulose membrane using semi-dry transfer. Membrane was blocked and incubated with respective antibodies. When needed, secondary antibodies with HRP were incubated for 1 hr. Enhanced chemiluminescent substrate for HRP enzymes was used to image protein levels (Thermo-Fischer; #34095).
Cells were seeded in a 60 mm dish or 6 well plates. After the appropriate time point, cells were harvested, lysed in RIPA buffer (Thermo Instruments) and protein concentration was quantified by a Lowry assay (using the Bio-Rad DC Protein Assay; #5000116 on a Spectramax device from Molecular Devices). Protein loading levels were equalized per lane and separated on SDS gels (Bio-Rad). Protein was transferred to a nitrocellulose membrance using semi-dry transfer (BioRad). Membranes were blocked with Omniblock (American Bio) and incubated with respected antibodies. When needed, secondary antibodies with HRP were incubated for 1 hr. Enhanced chemiluminescent substrate for HRP enzymes was used to image protein levels (Thermo-Fischer; #34095) on a ChemiDoc MP imager with Soft Max Pro software (Biorad).

TPC1 cells [2] = assay: RNA-seq of TPC1 cells after RET inhibitor treatment
Description: Purified polyA mRNA was subsequently fragmented, and first and second strand cDNA synthesis performed using standard Illumina mRNA TruSeq library preparation protocols. Double stranded cDNA was subsequently processed for TruSeq dual-index Illumina library generation. For sequencing, pooled multiplexed libraries were run on a HiSeq 2500 machine on RAPID mode. Approximately 10 million 76 bp single-end reads were retrieved per replicate condition. Resulting RNA-Seq data was analyzed by removing adaptor sequences using Trimmomatic, aligning sequencing data to GRCh37.75(hg19) with STAR, and genome wide transcript counting using HTSeq to generate a RPKM matrix of transcript counts. This RPKM matrix was further log (log 2) transformed and normalized per gene to obtain the Z-score. Differential gene expression was analyzed by looking at fold changes between experimental conditions.

| Structure (SMILES) | surface HLA (TT cells) | surface HLA (LC-2/ad cells) | surface HLA-A*02:01 (TPC1 cells [1]) | surface HLA-A,B,C (TPC1 cells [1]) | surface HLA-E levels (TPC1 cells [1]) | surface HLA-A,B,C (TPC1 cells [1]; listed as Cabozantinib) | pERK levels (pERK in TPC1 cells) | newly identified HLA ligands with at least a 2-fold increase in mRNA levels (TPC1 cells [2]) |
| --- | --- | --- | --- | --- | --- | --- | --- | --- |
| COc1cc2nccc(Oc3ccc(NC(=O)C4(C(=O)Nc5ccc(F)cc5)CC4)cc3)c2cc1OC [cabozantinib] | minimal effects on HLA upregulation; also recorded: Small changes in cell surface HLA | minimal effects on HLA upregulation; also recorded: Small changes in cell surface HLA | increased surface HLA | Surface HLA-A,B,C increase | did not change | a dose response relationship was seen | decreasing pERK levels; also recorded: decreased pERK expression | five |
| CC(=O)Nc1cccc(-n2c(=O)n(C3CC3)c(=O)c3c(Nc4ccc(I)cc4F)n(C)c(=O)c(C)c32)c1 [trametinib] | – | – | – | – | – | – | shut down pERK at lower doses of drug than AST487 | – |
